Results from US12594282B2, “Use of small molecule compounds in the treatment of diseases mediated by lung epithelial cell injury and/or vascular endothelial cell injury” (Guangzhou Cellprotek Pharmaceutical Co., Ltd., priority 2020, dated 2026).
For at least one compound, name, drawing or mass did not settle the structure.

System: HPAEpiC cells
Experiment: LPS+hypoxia model, LDH release, alveolar epithelial cells
Assay type: cell-based, human
Details: 10 μM, 1 hour pre-incubation; 20 μg/mL LPS and 1% O2 for 24 hours
Description: HPAEpiC cells were cultured with alveolar epithelial cell medium. When the cells grew to about 80% confluence, the cells were digested with 0.25% trypsin, and then pipetted evenly with alveolar epithelial cell medium. The cell concentration was adjusted to 2×10^5 cells/mL, and the cells were seeded in a 24-well plate at 400 uL/well. The experiment was conducted when the cells grew to about 70% confluence.
The hypoxia workstation was set to have an oxygen concentration of 1% (1% O2, 5% CO2, 94% a temperature to 37° C., and a humidity of 85%. After the conditions in the hypoxia workstation were stable, 1 mg/mL LPS was directly added to the cells to make the final concentration of LPS […], and then the cells were cultured in the hypoxia workstation for 24 hours.
Before being subjected to the model, the cells in the drug group were pre-incubated with vehicle (20% hydroxypropyl cyclodextrin solution) or drug (the final concentration of YC-6 was 1 μM, 5 μM, 10 μM) for 1 hour, and then added with LPS, and placed in the hypoxia workstation for constructing the model, until the end of the experiment. The model control group was not treated with any drug, and the normal group was placed in a cell incubator for routine culturing. 10 μM dexamethasone was used as the drug control. Three replicates were performed for each treatment group.

C[C@@H]1C[C@H]2[C@@H]3CCC4=CC(=O)C=C[C@]4(C)[C@@]3(F)[C@@H](O)C[C@]2(C)[C@@]1(O)C(=O)CO [Dexamethasone, dexamethasone, reference compound]
damage to alveolar epithelial cells (LDH release) induced by hypoxia and LPS: significantly attenuated this damage
